{
  "source": "the supplement of paper PMC8728848",
  "assay_in_all_cases": "glycan array binding signal (z-score within array); higher = stronger binding",
  "details_in_all_cases": "glycan notation: IUPAC condensed, linker removed",
  "key": {"Gal6S(b1-4)Glc6S": {"biological_target": "Gal6S(b1-4)Glc6S", "method_in_brief": "(§1)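 Columns mapping to the same glycan were averaged after glycan names were converted to IUPAC-condensed notation. The data come from 3228 arrays in the Consortium for Functional Glycomics database, limited to those with an available protein sequence. Binding is reported as a within-array Z-score averaged across arrays of one protein sequence and across linkers.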"}, "Gal6S(b1-4)GlcNAc": {"biological_target": "Gal6S(b1-4)GlcNAc", "method_in_brief": "as §1"}, "Gal6S(b1-4)GlcNAc6S": {"biological_target": "Gal6S(b1-4)GlcNAc6S", "method_in_brief": "as §1"}, "GalNAc(a1-3)Gal": {"biological_target": "GalNAc(a1-3)Gal", "method_in_brief": "as §1"}, "GalNAc(a1-3)GalNAc": {"biological_target": "GalNAc(a1-3)GalNAc", "method_in_brief": "as §1"}, "[1]": {"biological_target": "GalNAc(a1-3)GalNAc(a1-3)Gal(a1-4)Gal(b1-4)GlcNAc", "method_in_brief": "as §1"}, "[2]": {"biological_target": "GalNAc(a1-3)GalNAc(b1-3)Gal(a1-4)Gal(b1-4)Glc", "method_in_brief": "as §1"}, "GalNAc(b1-3)Gal": {"biological_target": "GalNAc(b1-3)Gal", "method_in_brief": "as §1"}, "[3]": {"biological_target": "GalNAc(b1-3)Gal(a1-4)Gal(b1-4)GlcNAc", "method_in_brief": "as §1"}, "[4]": {"biological_target": "GalNAc(b1-3)Gal(a1-4)Gal(b1-4)GlcNAc(b1-3)Gal(b1-4)Glc", "method_in_brief": "as §1"}, "[5]": {"biological_target": "GalNAc(b1-3)Gal(a1-6)Gal(b1-4)Glc", "method_in_brief": "as §1"}, "GalNAc(b1-3)GalNAc": {"biological_target": "GalNAc(b1-3)GalNAc", "method_in_brief": "as §1"}, "GalNAc(b1-3)GlcNAc": {"biological_target": "GalNAc(b1-3)GlcNAc", "method_in_brief": "as §1"}, "GalNAc(b1-4)Gal(b1-4)Glc": {"biological_target": "GalNAc(b1-4)Gal(b1-4)Glc", "method_in_brief": "as §1"}, "GalNAc(b1-4)GlcNAc": {"biological_target": "GalNAc(b1-4)GlcNAc", "method_in_brief": "as §1"}, "[6]": {"biological_target": "GalNAc(b1-4)GlcNAc(b1-2)Man", "method_in_brief": "as §1"}, "[7]": {"biological_target": "GalNAc(b1-4)GlcNAc(b1-2)Man(a1-3)[GalNAc(b1-4)GlcNAc(b1-2)Man(a1-6)]Man(b1-4)GlcNAc(b1-4)GlcNAc", "method_in_brief": "as §1"}, "[8]": {"biological_target": "GalNAc(b1-4)GlcNAc(b1-3)GalNAc(b1-4)GlcNAc", "method_in_brief": "as §1"}, "GalNAc(b1-4)GlcNAc6S": {"biological_target": "GalNAc(b1-4)GlcNAc6S", "method_in_brief": "as §1"}, "GalNAc(b1-6)GalNAc": {"biological_target": "GalNAc(b1-6)GalNAc", "method_in_brief": "as §1"}, "GalNAc3S(b1-4)GlcNAc": {"biological_target": "GalNAc3S(b1-4)GlcNAc", "method_in_brief": "as §1"}, "GalNAc3S(b1-4)GlcNAc3S": {"biological_target": "GalNAc3S(b1-4)GlcNAc3S", "method_in_brief": "as §1"}, "[9]": {"biological_target": "GalNAc3S(b1-4)[Fuc(a1-3)]GlcNAc", "method_in_brief": "as §1"}, "GalNAc4S6S(b1-4)GlcNAc": {"biological_target": "GalNAc4S6S(b1-4)GlcNAc", "method_in_brief": "as §1"}, "GalNAc6S(b1-4)GlcNAc": {"biological_target": "GalNAc6S(b1-4)GlcNAc", "method_in_brief": "as §1"}, "Glc(a1-4)Glc": {"biological_target": "Glc(a1-4)Glc", "method_in_brief": "as §1"}, "[10]": {"biological_target": "Glc(a1-4)Glc(a1-4)Glc(a1-4)Glc", "method_in_brief": "as §1"}, "Glc(a1-6)Glc(a1-6)Glc": {"biological_target": "Glc(a1-6)Glc(a1-6)Glc", "method_in_brief": "as §1"}, "[11]": {"biological_target": "Glc(a1-6)Glc(a1-6)Glc(a1-6)Glc", "method_in_brief": "as §1"}, "Glc(b1-4)Glc": {"biological_target": "Glc(b1-4)Glc", "method_in_brief": "as §1"}, "Glc(b1-6)Glc": {"biological_target": "Glc(b1-6)Glc", "method_in_brief": "as §1"}, "GlcA(b1-3)Gal": {"biological_target": "GlcA(b1-3)Gal", "method_in_brief": "as §1"}, "GlcA(b1-3)GlcNAc": {"biological_target": "GlcA(b1-3)GlcNAc", "method_in_brief": "as §1"}, "GlcA(b1-6)Gal": {"biological_target": "GlcA(b1-6)Gal", "method_in_brief": "as §1"}, "[12]": {"biological_target": "GlcA3S(b1-3)Gal(b1-4)GlcNAc(b1-2)Man", "method_in_brief": "as §1"}, "[13]": {"biological_target": "GlcA3S(b1-3)Gal(b1-4)GlcNAc(b1-3)Gal(b1-4)Glc", "method_in_brief": "as §1"}, "[14]": {"biological_target": "GlcNAc(a1-3)Gal(b1-4)GlcNAc", "method_in_brief": "as §1"}, "[15]": {"biological_target": "GlcNAc(a1-4)Gal(b1-3)GlcNAc", "method_in_brief": "as §1"}, "[16]": {"biological_target": "GlcNAc(a1-4)Gal(b1-4)GalNAc", "method_in_brief": "as §1"}, "[17]": {"biological_target": "GlcNAc(a1-4)Gal(b1-4)GlcNAc", "method_in_brief": "as §1"}, "[18]": {"biological_target": "GlcNAc(a1-4)Gal(b1-4)GlcNAc(b1-3)Gal(b1-4)Glc", "method_in_brief": "as §1"}, "[19]": {"biological_target": "GlcNAc(a1-4)Gal(b1-4)GlcNAc(b1-3)Gal(b1-4)GlcNAc", "method_in_brief": "as §1"}, "[20]": {"biological_target": "GlcNAc(a1-4)Gal(b1-4)GlcNAc(b1-3)Gal(b1-4)GlcNAc(b1-3)Gal(b1-4)GlcNAc", "method_in_brief": "as §1"}, "[21]": {"biological_target": "GlcNAc(a1-4)Gal(b1-4)GlcNAc(b1-3)Gal(b1-4)[Fuc(a1-3)]GlcNAc(b1-3)Gal(b1-4)[Fuc(a1-3)]GlcNAc", "method_in_brief": "as §1"}, "[22]": {"biological_target": "GlcNAc(a1-6)Gal(b1-4)GlcNAc", "method_in_brief": "as §1"}},
  "note": "This is one part of the list.",
  "data": [
    {"binder": "Langerin K299A/K313A (Homo sapiens), Q9UJ71 (protein) STLNAQIPELKSDLEKASALNTKIRALQGSLENMSKLLKRQNDILQVVSQGWKYFKGNFYYFSLIPKTWYSAEQFCVSRNSHLTSVTSESEQEFLYKTAGGLIYWIGLTKAGMEGDWSWVDDTPFNKVQSARFWIPGEPNNAGNNEHCGNIAAPSLQAWNDAPCDATFLFICKRPYVPSEP", "values": [
      {"measurement": "glycan array binding signal (z-score)", "setting": "Gal6S(b1-4)Glc6S", "value": -0.156},
      {"measurement": "glycan array binding signal (z-score)", "setting": "Gal6S(b1-4)GlcNAc", "value": 0.749},
      {"measurement": "glycan array binding signal (z-score)", "setting": "Gal6S(b1-4)GlcNAc6S", "value": -0.004},
      {"measurement": "glycan array binding signal (z-score)", "setting": "GalNAc(a1-3)Gal", "value": -0.751},
      {"measurement": "glycan array binding signal (z-score)", "setting": "GalNAc(a1-3)GalNAc", "value": -0.656},
      {"measurement": "glycan array binding signal (z-score)", "setting": "[1]", "value": -0.545},
      {"measurement": "glycan array binding signal (z-score)", "setting": "[2]", "value": 0.162},
      {"measurement": "glycan array binding signal (z-score)", "setting": "GalNAc(b1-3)Gal", "value": -0.458},
      {"measurement": "glycan array binding signal (z-score)", "setting": "[3]", "value": -0.675},
      {"measurement": "glycan array binding signal (z-score)", "setting": "[4]", "value": -1.32},
      {"measurement": "glycan array binding signal (z-score)", "setting": "[5]", "value": 0.155},
      {"measurement": "glycan array binding signal (z-score)", "setting": "GalNAc(b1-3)GalNAc", "value": -0.656},
      {"measurement": "glycan array binding signal (z-score)", "setting": "GalNAc(b1-3)GlcNAc", "value": -0.673},
      {"measurement": "glycan array binding signal (z-score)", "setting": "GalNAc(b1-4)Gal(b1-4)Glc", "value": 0.297},
      {"measurement": "glycan array binding signal (z-score)", "setting": "GalNAc(b1-4)GlcNAc", "value": -0.122},
      {"measurement": "glycan array binding signal (z-score)", "setting": "[6]", "value": -1},
      {"measurement": "glycan array binding signal (z-score)", "setting": "[7]", "value": 0.824},
      {"measurement": "glycan array binding signal (z-score)", "setting": "[8]", "value": 0.094},
      {"measurement": "glycan array binding signal (z-score)", "setting": "GalNAc(b1-4)GlcNAc6S", "value": -1.26},
      {"measurement": "glycan array binding signal (z-score)", "setting": "GalNAc(b1-6)GalNAc", "value": -0.509},
      {"measurement": "glycan array binding signal (z-score)", "setting": "GalNAc3S(b1-4)GlcNAc", "value": -0.815},
      {"measurement": "glycan array binding signal (z-score)", "setting": "GalNAc3S(b1-4)GlcNAc3S", "value": 0.359},
      {"measurement": "glycan array binding signal (z-score)", "setting": "[9]", "value": -1},
      {"measurement": "glycan array binding signal (z-score)", "setting": "GalNAc4S6S(b1-4)GlcNAc", "value": 0.212},
      {"measurement": "glycan array binding signal (z-score)", "setting": "GalNAc6S(b1-4)GlcNAc", "value": -0.425},
      {"measurement": "glycan array binding signal (z-score)", "setting": "Glc(a1-4)Glc", "value": -0.103},
      {"measurement": "glycan array binding signal (z-score)", "setting": "[10]", "value": -0.576},
      {"measurement": "glycan array binding signal (z-score)", "setting": "Glc(a1-6)Glc(a1-6)Glc", "value": 0.636},
      {"measurement": "glycan array binding signal (z-score)", "setting": "[11]", "value": -0.568},
      {"measurement": "glycan array binding signal (z-score)", "setting": "Glc(b1-4)Glc", "value": -0.813},
      {"measurement": "glycan array binding signal (z-score)", "setting": "Glc(b1-6)Glc", "value": -0.203},
      {"measurement": "glycan array binding signal (z-score)", "setting": "GlcA(b1-3)Gal", "value": -0.832},
      {"measurement": "glycan array binding signal (z-score)", "setting": "GlcA(b1-3)GlcNAc", "value": 0.979},
      {"measurement": "glycan array binding signal (z-score)", "setting": "GlcA(b1-6)Gal", "value": -0.822},
      {"measurement": "glycan array binding signal (z-score)", "setting": "[12]", "value": -1},
      {"measurement": "glycan array binding signal (z-score)", "setting": "[13]", "value": -0.699},
      {"measurement": "glycan array binding signal (z-score)", "setting": "[14]", "value": -1.22},
      {"measurement": "glycan array binding signal (z-score)", "setting": "[15]", "value": -0.596},
      {"measurement": "glycan array binding signal (z-score)", "setting": "[16]", "value": -0.167},
      {"measurement": "glycan array binding signal (z-score)", "setting": "[17]", "value": -0.662},
      {"measurement": "glycan array binding signal (z-score)", "setting": "[18]", "value": -0.826},
      {"measurement": "glycan array binding signal (z-score)", "setting": "[19]", "value": -1.05},
      {"measurement": "glycan array binding signal (z-score)", "setting": "[20]", "value": -0.581},
      {"measurement": "glycan array binding signal (z-score)", "setting": "[21]", "value": 1.56},
      {"measurement": "glycan array binding signal (z-score)", "setting": "[22]", "value": 0.024}
    ]}
  ]
}
